No constants are given. Whether binding was seen depends on the method and setting. In cells and extracts the contact can be indirect. A yes stands for co-enrichment or nearness to the bait. Other partners may have been found. For part of these data: No binding means not detected with the bait. Tags and fused reporters may be left off the sequences shown.

By UniProt entry, the sequences of proteins in these tests, tags left out.
UniProt A0QP27: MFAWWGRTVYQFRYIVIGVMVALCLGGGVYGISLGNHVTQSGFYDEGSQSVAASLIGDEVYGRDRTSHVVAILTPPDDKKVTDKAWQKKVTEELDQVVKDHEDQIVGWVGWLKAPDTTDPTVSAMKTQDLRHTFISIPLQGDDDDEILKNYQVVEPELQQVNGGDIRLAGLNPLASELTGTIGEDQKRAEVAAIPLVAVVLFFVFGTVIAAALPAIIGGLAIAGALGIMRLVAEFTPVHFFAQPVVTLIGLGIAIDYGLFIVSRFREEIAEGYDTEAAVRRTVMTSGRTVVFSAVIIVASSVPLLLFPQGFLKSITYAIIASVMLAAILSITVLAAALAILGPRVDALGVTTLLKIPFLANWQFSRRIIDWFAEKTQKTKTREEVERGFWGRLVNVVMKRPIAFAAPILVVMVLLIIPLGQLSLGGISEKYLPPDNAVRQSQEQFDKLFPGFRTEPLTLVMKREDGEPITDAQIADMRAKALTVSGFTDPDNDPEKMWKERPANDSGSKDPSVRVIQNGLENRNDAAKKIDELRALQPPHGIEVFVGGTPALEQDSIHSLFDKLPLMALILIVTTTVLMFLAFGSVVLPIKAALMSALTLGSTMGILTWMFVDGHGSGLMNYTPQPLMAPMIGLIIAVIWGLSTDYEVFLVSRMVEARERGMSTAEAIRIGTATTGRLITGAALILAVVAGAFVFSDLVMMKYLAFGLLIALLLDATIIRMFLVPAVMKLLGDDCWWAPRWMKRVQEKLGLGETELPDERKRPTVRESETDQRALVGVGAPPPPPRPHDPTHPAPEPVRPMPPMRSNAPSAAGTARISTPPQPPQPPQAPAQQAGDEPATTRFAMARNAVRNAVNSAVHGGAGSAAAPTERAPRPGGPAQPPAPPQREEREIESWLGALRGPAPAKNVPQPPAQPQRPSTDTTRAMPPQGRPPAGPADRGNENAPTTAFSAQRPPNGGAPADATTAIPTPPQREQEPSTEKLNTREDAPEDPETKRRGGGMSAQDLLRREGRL

Test [1] deals with T1, MSMEG_0736 (TtfA)-msfGFP, full length (Mycobacterium smegmatis) (UniProt A0QQF4).
T1 sequence: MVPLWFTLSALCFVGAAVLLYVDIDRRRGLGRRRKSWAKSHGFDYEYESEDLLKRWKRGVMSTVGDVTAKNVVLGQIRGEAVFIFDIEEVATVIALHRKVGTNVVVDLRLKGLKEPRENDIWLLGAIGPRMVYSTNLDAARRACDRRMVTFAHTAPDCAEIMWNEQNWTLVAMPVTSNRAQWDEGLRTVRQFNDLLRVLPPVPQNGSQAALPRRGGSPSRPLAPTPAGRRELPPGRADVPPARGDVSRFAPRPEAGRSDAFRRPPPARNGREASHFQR
Put plainly: affinity purification with mass spectrometry; msfGFP-tagged bait captured on GFP-Trap_MA beads (anti-GFP nanobody) from membranes solubilized in 1% DDM, 50 mM Tris-HCl pH 7.5, 150 mM NaCl, 4°C; washed with 0.2% DDM; eluates by shotgun mass spectrometry (in a replicate an excised gel band).

For test [2], the target named is T1, MSMEG_0736 (TtfA)-msfGFP, full length (Mycobacterium smegmatis). Put plainly: affinity purification with mass spectrom.
Test [3] has as its target MmpL10 (MSMEG_0410)-msfGFP (Mycobacterium smegmatis). The test is described as follows: affinity purification with mass spectrometry; msfGFP-tagged bait captured on GFP-Trap_MA beads (anti-GFP nanobody) from membranes solubilized in 1% DDM, 50 mM Tris-HCl pH 7.5, 150 mM NaCl, 4°C; washed with 0.2% DDM; eluates by shotgun mass spectrometry (in a replicate an excised gel band).

Test [4] has as its target MmpL3-msfGFP (MSMEG_0250 with C-terminal monomeric superfolder GFP) (Mycobacterium smegmatis) (UniProt A0QP27). The description is as above.

As to “MmpL3 (MSMEG_0250), untagged (from UniProt A0QP27 1-1013)”, the binding entry in test [1] was “binds”.
As to “VirR (vesiculogenesis regulator), M. smegmatis protein found in MsTtfA purifications”, in test [2], the binding result is listed as “binds”.

B1: MSMEG_5308, untagged (protein, UniProt A0R316 1-368)
chain: MTMAKNILRAITAIVRRDAKTPDTDDSAGSVTFDGALDDLDVAGLVEVGRGPIADIAIDADRETIVVTNSAADCLTVINPYTLAPVGSVRLNGEPFAVAAADDRAYVSVVTAGHDAIKVVDTITGSVLAEYPLAMTVTALAMSPDGKRVFVGRSGHDRIDVAVIDTAAERVGTIDLASGAGAGVDALRVDASGKRLYVATTDPRGSRMVTVNIETAQIESTVWIGAPIRDLALGADGKALVLTSDRQRRGVVHIVDLSTAAVVGAIQIGGAPTQLVLSPDATRAYVVDYDRVIVLCTLTNEILGSIDVGMQPAAVAVRRDGARVYVADYSGQVNAFDVAAELPALYSRLVASEPRQDATTVLPSLQTA
Take B1: the binding result in test [1] is recorded as “binds”; in test [3] it was “no binding”.

B2: MSMEG_0736 (TMM transport factor A, TtfA), untagged (protein, UniProt A0QQF4 1-278)
chain: T1 sequence
As for B2, the binding result in test [3] is “no binding”; in test [4] it was “binds”.

For the origin of these results see article PMC6593404.
